Results are given in words; binding and its absence hold for the method and conditions named. Binding seen in cells or lysates may run through a third protein. Binding can be weak; no strength is given.
Molecular target: FLAG-MS2-x4E-T (Xenopus 4E-T, wild type) (Xenopus)
Assay: co-IP; extracts of Xenopus stage VI oocytes expressing FLAG-MS2-x4E-T from injected mRNA; anti-FLAG and Protein-G-Sepharose, NET buffer, 4 h at 4°C, elution with FLAG peptide; western blotting

binding: binds
B1: Xp54 helicase (protein, UniProt P54824 1-481)
chain: MSTARTENPVLMGMSSQNGQLRGPLKPSAGPGGGGTQTQQINQLKNASTINSGSQQQAQSMSSIIKPGDDWKKTLKLPPKDLRIKTSDVTSTKGNEFEDYCLKRELLMGIFEMGWEKPSPIQEESIPIALSGRDILARAKNGTGKSGAYLIPLLERLDLKKDCIQAMVIVPTRELALQVSQICIQVSKHMGGAKVMATTGGTNLRDDIMRLDDTVHVVIATPGRILDLIKKGVAKVDHIQMIVLDEADKLLSQDFMQIMEDIIMTLPKNRQILLYSATFPLSVQKFMTLHLQKPYEINLMEELTLKGVTQYYAYVTERQKVHCLNTLFSRLQINQSIIFCNSSQRVELLAKKISQLGYSCFYIHAKMRQEHRNRVFHDFRNGLCRNLVCTDLFTRGIDIQAVNVVINFDFPKLAETYLHRIGRSGRFGHLGLAINLITYDDRFNLKSIEEQLGTEIKPIPSSIDKNLYVAEYHSESGEDKP
